# Reference: PubChem BioAssay AID488913 (National Center for Advancing Translational Sciences (NCATS), 2010)
# Several values for one entry are separate records, joined by “and”; a condition that tells them apart may be missing. Equal entries are not always repeated. The shares of active, inactive and inconclusive entries below differ from those in the screen. Potencies of inconclusive entries are doubtful fits and often do not repeat. Activity calls are given as the source filed them. The call rests on the fitted dose curve; in most records, active means well fitted inhibition curve with a large enough effect; inconclusive means small, poorly fitted or top-dose-only effect, or effect the other way; inactive means no such curve, though single readings can be large or run the other way.
# Test: Confirmation Concentration-Response Assay for lipid storage modulators: for probe SAR
# Conditions: Drosophila S3 cells, BODIPY lipid droplet fluorescence, 18-24 h; activity change, negative = lipid storage inhibition: at 46.1 µM (top of the series)
# Method in brief: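 Cells (5,000/well) received compound plus 1 µL of 400 µM oleic acid and were incubated 18–24 h at 24 °C. Lipid droplets were stained with BODIPY 493/503 and cells counted with CellTracker Red by laser-scanning cytometry. Percent activity was relative to 20 µM Triacsin C (100% inhibition).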
Compound,Potency,"activity change, negative = lipid storage inhibition"
O=C(NC1CCCc2c1cnn2-c1ccc(F)cc1F)c1ccc[n+]([O-])c1 (centres undefined),inactive,–
O=C(NC1CCCc2c1cnn2-c1ccc(F)cc1F)c1ccc(C(=O)c2ccccc2)cc1 (centres undefined),"inconclusive: 0.281 µM [activator, full curve, poor fit]",–
CCOc1ccc(CCNC(=O)c2cccs2)cc1OCC,inactive,–
CC(C)(C)OC(=O)N1CCCCC1C(=O)NC1CCCc2c1cnn2-c1ccc(F)cc1F (centres undefined),inactive,–
CC(C)(C)OC(=O)NC1CCCc2c1cnn2-c1ccc(F)cc1F (centres undefined),active: 0.888 µM,–
COc1nc(-c2ccc3c(c2)OCO3)n(-c2ccc(NC(=O)CSc3ccccc3)cc2)n1,"inconclusive: 1.77 µM [activator, full curve]",–
CCCn1c(-c2ccc(OC)cc2)cnc1SCC(=O)Nc1nc(C)c(C)s1,"inconclusive: 28.1 µM [falling, single point]",–
CCOc1ccc(CCNC(=O)c2cc3sccc3n2C)cc1,"inconclusive: 7.05 µM [activator, partial curve]",–
Cc1cccc(Nc2nnc(SCC(=O)Nc3nc(-c4ccc(F)cc4)cs3)s2)c1,active: 0.628 µM,–
O=C(NC1CCCc2c1cnn2-c1ccccc1F)c1cccc2nccnc12 (centres undefined),active: 2.74 µM,–
COc1ccc(-c2cnc(SCC(=O)Nc3nc(C)cs3)n2Cc2ccco2)cc1,"inconclusive: 0.158 µM [activator, full curve]",–
CCOC(=O)C1CCN(C(=O)C2(NC(=O)Nc3ccccc3Cl)CC2)CC1,–,inconclusive: -77.2% [activator]
CCOc1ccc(CCNC(=O)c2cc3sccc3n2C(C)C)cc1OCC,active: 0.0996 µM,–
CCOc1ccc(CCNC(=O)c2cc3ccccc3o2)cc1OCC,"inconclusive: 2.23 µM [activator, partial curve, poor fit]",–
COc1ccc(Cl)cc1NC(=S)N1CCN(c2ccccc2)CC1,"inconclusive: 1.99 µM [activator, partial curve, poor fit]",–
COc1ccc(Cl)cc1NC(=S)N1CCN(c2ccc(F)cc2)CC1,"inconclusive: 0.199 µM [activator, full curve, poor fit]",–
O=C(NC1CCCc2c1cnn2-c1ccc(F)cc1F)c1cnon1 (centres undefined),"inconclusive: 28.1 µM [falling, single point]",–
Cc1ccc(-c2nc(NC(=O)Cc3cccs3)sc2C)cc1,"inconclusive: 28.1 µM [falling, single point]",–
CCOC(=O)C1CCCN(C(=O)C2(NC(=O)Nc3ccc(F)cc3F)CCCCC2)C1 (centres undefined),inactive,–
CCOc1ccc(CCNC(=O)c2cc3sccc3n2Cc2cccc(C)c2)cc1OCC,active: 0.004 µM,–
Cc1sc(NC(=O)Cc2cccs2)nc1-c1ccccc1,"inconclusive: 0.199 µM [activator, full curve, poor fit]",–
O=C(NC1CCCc2c1cnn2-c1ccc(F)cc1F)c1c(F)cccc1Cl (centres undefined),active: 3.53 µM,–
O=C(NC1CCCc2c1cnn2-c1ccc(F)cc1F)c1ccccn1 (centres undefined),active: 8.7 nM and active: 7.9 nM,–
CCOc1ccc(CCNC(=O)c2ccc(N3N=C(C)CC3=O)cc2)cc1OCC,"inconclusive: 8.88 µM [activator, partial curve, poor fit]",–
CCOC(=O)C1CCN(C(=O)C2(NC(=O)NCc3ccccc3)CCCCC2)CC1,active: 4.45 µM,–
CCOc1ccc(CCNC(=O)c2cnon2)cc1OCC,"inconclusive: 9.96 µM [activator, full curve, poor fit]",–
COc1cc(NC(=S)N2CCN(c3ccccn3)CC2)c(OC)cc1Cl,"inconclusive: 0.888 µM [activator, full curve, poor fit]",–
O=C(NCCc1ccc2c(c1)OCO2)c1cc2sccc2n1Cc1ccccc1,inactive,–
Cc1ccc(CC(=O)Nc2nc(-c3cccs3)cs2)cc1,"inconclusive: 14.1 µM [activator, partial curve, poor fit]",–

# One compound at a time, from the list above. Values in the order: Potency | activity change, negative = lipid storage inhibition
# O=C(NC1CCCc2c1cnn2-c1ccc(F)cc1F)c1cnon1 (centres undefined) in the list: inconclusive: 28.1 µM [falling, single point] | –
# COc1ccc(Cl)cc1NC(=S)N1CCN(c2ccccc2)CC1 in the list: inconclusive: 1.99 µM [activator, partial curve, poor fit] | –
